According to the supplement of paper PMC3334620:
In all, about 33,000 sequences were measured (“E-score (-0.5 to 0.5)”: median about -0.015, highest 2% from about 0.3 on). This is one part of the list.

Target: T1, Abf1 (UniProt P14164)
T1 sequence: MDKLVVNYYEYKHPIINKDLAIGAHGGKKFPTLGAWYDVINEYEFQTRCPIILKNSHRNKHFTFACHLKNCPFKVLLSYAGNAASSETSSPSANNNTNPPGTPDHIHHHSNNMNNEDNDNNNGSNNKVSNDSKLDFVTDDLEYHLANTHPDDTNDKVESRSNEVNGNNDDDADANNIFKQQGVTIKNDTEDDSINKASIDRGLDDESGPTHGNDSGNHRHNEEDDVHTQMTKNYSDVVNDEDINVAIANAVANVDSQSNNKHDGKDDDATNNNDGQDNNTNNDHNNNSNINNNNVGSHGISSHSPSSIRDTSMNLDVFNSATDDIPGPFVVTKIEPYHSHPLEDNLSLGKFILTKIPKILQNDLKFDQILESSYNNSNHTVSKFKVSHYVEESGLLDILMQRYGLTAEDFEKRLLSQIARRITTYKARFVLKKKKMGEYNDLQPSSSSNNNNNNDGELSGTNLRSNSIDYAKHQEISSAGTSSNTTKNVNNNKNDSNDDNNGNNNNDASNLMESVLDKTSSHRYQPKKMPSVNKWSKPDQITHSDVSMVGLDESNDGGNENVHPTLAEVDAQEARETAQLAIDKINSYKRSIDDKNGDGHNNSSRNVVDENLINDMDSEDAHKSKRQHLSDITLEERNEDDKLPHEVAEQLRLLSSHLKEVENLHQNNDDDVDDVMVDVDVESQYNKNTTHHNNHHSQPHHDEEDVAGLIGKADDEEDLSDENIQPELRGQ
Assay: PBM E-score (8-mer binding enrichment) (E-score (-0.5 to 0.5)); higher = stronger / more preferred TF binding
Settings: protein concentration: 200 nM; construct: GST-full length
Outline: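 Detection of bound protein used fluorescent anti-GST, with scans normalised by masliner. The proteins were GST-tagged yeast transcription factors applied at about 100-200 nM to universal all-10-mer Agilent arrays made double-stranded by primer extension. Each ungapped eight-base word, pooled with its reverse complement, was scored with an E-score from the Universal PBM Analysis Suite.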

Row | Sequence | PBM E-score
1 | ACAGCTAG | -0.181
2 | ACCTTGCT | -0.129
3 | ATATGGAT | 0.164
4 | CTGTCTTC | -0.132
5 | CAAAGCAC | 0.103
6 | ACTTCGGG | -0.239
7 | AAAGTCCC | -0.0958
8 | GGGGATCA | -0.0388
9 | GGGCTTGA | -0.189
10 | CCAATTGC | -0.102
11 | ACACAGGG | -0.0866
12 | TTCAACAA | 0.00101
13 | CCAACTAG | 0.0426
14 | GCCGAACA | 0.0292
15 | CATGGCAA | 0.00264
16 | AACCTGAA | -0.274
17 | TGCTGTAA | 0.172
18 | AAATTATT | 0.215
19 | AAGTAGAC | -0.0464
20 | CCCGAATA | 0.0145
21 | TCTATCCA | 0.0772
22 | AGTTGTCA | 0.253
23 | TAGACACA | -0.186
24 | ACTTATCA | 0.231
25 | ATAAGGGG | -0.0385

Two entries from above, tab-delimited:
Row	Sequence	PBM E-score
1	ACAGCTAG	-0.181
6	ACTTCGGG	-0.239

Additional results.

Row | Sequence | PBM E-score
26 | GCCTCAAC | -0.103
27 | TAATGCCA | -0.0319
28 | GAATCAAA | -0.0532
29 | ATACTTAC | 0.231
30 | CGATGCAG | -0.121
31 | ACTTCCTG | 0.00876
32 | GCGATATA | 0.368
33 | AAGAAGAA | 0.145
34 | CGGAACAC | 0.156
35 | AGTCGTTG | 0.0688
36 | ATACGCGC | 0.00524
37 | CAGAGGGA | -0.0392
38 | ATGTCGCA | 0.203
39 | AGGTGTTC | -0.0567
40 | CCTACCGC | -0.255
41 | AGCTATTG | -0.14
42 | CAGGGGGG | -0.308
43 | CTAGGAAA | -0.0957
44 | AGGGACGA | 0.24
45 | CAAGTAGA | -0.246
46 | CCGGCAAC | -0.251
47 | TGCATTAA | 0.0881
48 | TCTTACCA | -0.21
49 | GCGGCGGA | 0.0979
50 | GAGCTATC | -0.0679

Row | Sequence | PBM E-score
51 | CCTTATGC | 0.0214
52 | ATGACTGG | -0.228
53 | CCGTCCCG | -0.024
54 | GAGATGGC | -0.0162
55 | GTCCAGAA | -0.0139
56 | AAAATGGC | 0.0419
57 | CACAGTTC | -0.0106
58 | CACTTTCG | 0.229
59 | CGTCACCC | 0.0771
60 | CATAGCGA | 0.027
61 | GTCCCTGA | 0.0172
62 | AGGTGGGG | -0.168
63 | AATCCCTA | 0.0984
64 | AGGGCTAG | -0.232
65 | ACTATCCT | -0.0315
66 | AGCCTGGA | -0.328
67 | GAACGAAC | 0.121
68 | AAAGTCCA | -0.00416
69 | ATATAGAA | -0.059
70 | GTAGACTA | -0.244
71 | AGGGTCAG | -0.282
72 | AGACAGAC | 0.0875
73 | CTCAACTA | -0.0435
74 | ACTTACCA | -0.105
75 | CCTTGGGA | -0.158

Row | Sequence | PBM E-score
76 | TAATAGAA | 0.158
77 | AGTCGAGG | -0.102
78 | CGGGCTAA | -0.295
79 | ACCCCGAC | -0.154
80 | ACACAAAC | 0.0247
81 | CCCGATGC | -0.19
82 | GCCCTGGA | 0.0449
83 | AGAACCCA | -0.0314
84 | ACACCAGT | -0.157
85 | AGTCCTCC | -0.219
86 | CCACGAGA | 0.132
87 | CCCAGACA | -0.112
88 | GGCTATGA | -0.115
89 | TATTTGGA | -0.119
90 | CATAGGAA | 0.0223
91 | GAGGACCA | -0.0911
92 | GCACTGAC | -0.0867
93 | CGCGCAAC | -0.0533
94 | ATCCGTGC | 0.242
95 | GTGTGTTA | -0.0342
96 | AATCTAAT | -0.118
97 | CGGCGGAA | -0.0532
98 | ATGGACCA | -0.0277
99 | AATTCGTC | 0.315
100 | ATCAATAG | -0.093

Shown tab-delimited: entries from further up
Row	Sequence	PBM E-score
77	AGTCGAGG	-0.102
78	CGGGCTAA	-0.295
79	ACCCCGAC	-0.154

An excerpt of these results, as a markdown table:

| Row | Sequence | PBM E-score |
| --- | --- | --- |
| 25 | ATAAGGGG | -0.0385 |
| 53 | CCGTCCCG | -0.024 |
| 88 | GGCTATGA | -0.115 |

Remaining list, next part.

Row | Sequence | PBM E-score
101 | AACCCTTC | -0.0433
102 | CTCCCTCA | -0.0926
103 | CTAGAGTA | -0.123
104 | ACTATCCA | 0.0249
105 | ATAGGACA | -0.136
106 | CCACGTTA | 0.147
107 | AAATGGGG | -0.216
108 | AAGGCCGT | 0.0334
109 | CTTTTAAA | 0.0683
110 | ATTACCTG | -0.0452
111 | CCGCAGCA | -0.0406
112 | ACGCTTGA | 0.0331
113 | ACCGCATG | 0.105
114 | AGTGTTAC | 0.0125
115 | AGGCGCCG | 0.147
116 | AAGGCTTA | -0.214
117 | AAATGGCA | 0.0205
118 | GTAGTATA | 0.146
119 | ATGGGACG | 0.0795
120 | CAAAGGGC | -0.155
121 | CATGCTCG | -0.0629
122 | GAGGGACA | -0.103
123 | ATGTTAAT | -0.0223
124 | TCCGTTCA | 0.0159
125 | AGAGTACG | 0.01

Row | Sequence | PBM E-score
126 | CCAGCCGC | -0.0671
127 | AGATTAAA | 0.296
128 | CCATTGAC | -0.0286
129 | ATTCTAAA | 0.122
130 | CGAAGGAA | -0.179
131 | AACGTAAT | -0.0392
132 | AGGCTCGC | -0.173
133 | ATAAGGGA | -0.0279
134 | ATCGGAGC | -0.0319
135 | AATTAGAA | -0.0607
136 | AGGCGGGC | -0.0458
137 | ACATGTCA | 0.221
138 | ACTGACCC | -0.252
139 | CGGGTCTA | -0.0341
140 | AGTAGTGG | -0.0083
141 | AGAACTCA | -0.123
142 | ACCCGTAC | 0.299
143 | ATAAAGGC | -0.147
144 | AACTGCAG | -0.167
145 | GTTATTAA | 0.0652
146 | AGTGATCA | 0.416
147 | GGCGCACC | -0.238
148 | CCAAACCA | -0.0474
149 | AGACGTAT | 0.084
150 | ACACGCAA | -0.0276

Row | Sequence | PBM E-score
151 | GCCCCGGA | -0.217
152 | GCAACCCA | 0.00802
153 | GCTGCAGA | -0.106
154 | GACACTTA | -0.0374
155 | AAACACTT | 0.0186
156 | ATGTCAAA | 0.108
157 | TAGGATCA | 0.183
158 | AACGCGAG | -0.00027
159 | AGTTTGAT | 0.0104
160 | CAGACACC | 0.0176
161 | CAACCCCA | -0.195
162 | CAAAGTGA | 0.28
163 | ACGATACG | 0.334
164 | CGGTCTCC | -0.336
165 | CGAAGGGA | -0.118
166 | GGCAACGA | 0.187
167 | GAATCGGA | -0.1
168 | CCCGACCG | -0.167
169 | CTAGTCCA | -0.122
170 | CACCGTGC | 0.246
171 | CCCGGACC | -0.275
172 | CCGCGGAA | -0.0498
